# These are yes or no findings as the source states them, for the method shown.
# B1: Escherichia coli glutaredoxin 3 (EcGrx3) wild type (enzyme, UniProt P0AC62 2-83)
# chain: ANVEIYTKETCPYCHRAKALLSSKGVSFQELPIDGNAAKREEMIKRSGRTTVPQIFIDAQHIGGCDDLYALDARGGLDPLLK
# Target: Escherichia coli glutaredoxin 3 (EcGrx3) wild type (E. coli K-12) (UniProt P0AC62)
# Assay: SEC; Superdex 200 prep grade XK16 column in buffer C (50 mM Tris-HCl, 50 mM NaCl, pH 8.0), calibrated with a protein standard mix (12.4-200 kDa); both purified
binder,measurement,value
B1,binding,no binding

# — PMC12199019
